In the supplement of paper PMC10849652:
This is one part of the list. Residues, ends and D or L forms follow the SMILES beside them. *: point of attachment. Cbz = O=C(OCc1ccccc1)*

By UniProt entry, the sequences of proteins in these tests, tags left out. Where a name states a change or a piece, a line headed by the entry shows the natural chain unless it says otherwise.
UniProt Q9BWD1: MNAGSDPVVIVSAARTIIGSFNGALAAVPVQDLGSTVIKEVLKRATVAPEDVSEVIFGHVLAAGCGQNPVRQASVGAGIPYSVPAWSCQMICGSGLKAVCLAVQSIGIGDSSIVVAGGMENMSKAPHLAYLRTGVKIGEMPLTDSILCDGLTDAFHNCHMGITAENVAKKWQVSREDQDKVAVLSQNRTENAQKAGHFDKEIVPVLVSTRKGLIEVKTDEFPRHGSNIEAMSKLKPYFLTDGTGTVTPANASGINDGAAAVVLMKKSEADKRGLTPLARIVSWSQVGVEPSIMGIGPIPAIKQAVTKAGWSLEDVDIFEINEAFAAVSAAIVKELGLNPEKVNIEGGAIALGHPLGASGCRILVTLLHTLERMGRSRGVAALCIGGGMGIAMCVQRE
UniProt Q15067: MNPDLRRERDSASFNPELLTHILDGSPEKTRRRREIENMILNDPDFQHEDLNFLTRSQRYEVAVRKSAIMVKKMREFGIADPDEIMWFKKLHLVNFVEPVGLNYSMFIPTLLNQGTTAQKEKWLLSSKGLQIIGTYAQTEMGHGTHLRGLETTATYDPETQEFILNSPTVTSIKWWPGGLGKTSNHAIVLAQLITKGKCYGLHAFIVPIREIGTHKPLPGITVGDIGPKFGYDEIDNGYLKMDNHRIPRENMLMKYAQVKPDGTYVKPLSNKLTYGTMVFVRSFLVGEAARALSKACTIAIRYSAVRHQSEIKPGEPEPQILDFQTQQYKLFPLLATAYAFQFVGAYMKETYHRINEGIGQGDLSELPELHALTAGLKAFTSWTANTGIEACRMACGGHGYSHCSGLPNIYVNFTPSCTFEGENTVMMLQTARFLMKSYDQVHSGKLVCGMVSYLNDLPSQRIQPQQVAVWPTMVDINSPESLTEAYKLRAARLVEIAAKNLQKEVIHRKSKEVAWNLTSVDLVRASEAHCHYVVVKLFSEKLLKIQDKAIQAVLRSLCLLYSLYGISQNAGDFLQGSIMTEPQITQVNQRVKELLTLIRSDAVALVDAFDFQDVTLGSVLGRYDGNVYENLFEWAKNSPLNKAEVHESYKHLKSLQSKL
UniProt P01023, whole entry, looked up: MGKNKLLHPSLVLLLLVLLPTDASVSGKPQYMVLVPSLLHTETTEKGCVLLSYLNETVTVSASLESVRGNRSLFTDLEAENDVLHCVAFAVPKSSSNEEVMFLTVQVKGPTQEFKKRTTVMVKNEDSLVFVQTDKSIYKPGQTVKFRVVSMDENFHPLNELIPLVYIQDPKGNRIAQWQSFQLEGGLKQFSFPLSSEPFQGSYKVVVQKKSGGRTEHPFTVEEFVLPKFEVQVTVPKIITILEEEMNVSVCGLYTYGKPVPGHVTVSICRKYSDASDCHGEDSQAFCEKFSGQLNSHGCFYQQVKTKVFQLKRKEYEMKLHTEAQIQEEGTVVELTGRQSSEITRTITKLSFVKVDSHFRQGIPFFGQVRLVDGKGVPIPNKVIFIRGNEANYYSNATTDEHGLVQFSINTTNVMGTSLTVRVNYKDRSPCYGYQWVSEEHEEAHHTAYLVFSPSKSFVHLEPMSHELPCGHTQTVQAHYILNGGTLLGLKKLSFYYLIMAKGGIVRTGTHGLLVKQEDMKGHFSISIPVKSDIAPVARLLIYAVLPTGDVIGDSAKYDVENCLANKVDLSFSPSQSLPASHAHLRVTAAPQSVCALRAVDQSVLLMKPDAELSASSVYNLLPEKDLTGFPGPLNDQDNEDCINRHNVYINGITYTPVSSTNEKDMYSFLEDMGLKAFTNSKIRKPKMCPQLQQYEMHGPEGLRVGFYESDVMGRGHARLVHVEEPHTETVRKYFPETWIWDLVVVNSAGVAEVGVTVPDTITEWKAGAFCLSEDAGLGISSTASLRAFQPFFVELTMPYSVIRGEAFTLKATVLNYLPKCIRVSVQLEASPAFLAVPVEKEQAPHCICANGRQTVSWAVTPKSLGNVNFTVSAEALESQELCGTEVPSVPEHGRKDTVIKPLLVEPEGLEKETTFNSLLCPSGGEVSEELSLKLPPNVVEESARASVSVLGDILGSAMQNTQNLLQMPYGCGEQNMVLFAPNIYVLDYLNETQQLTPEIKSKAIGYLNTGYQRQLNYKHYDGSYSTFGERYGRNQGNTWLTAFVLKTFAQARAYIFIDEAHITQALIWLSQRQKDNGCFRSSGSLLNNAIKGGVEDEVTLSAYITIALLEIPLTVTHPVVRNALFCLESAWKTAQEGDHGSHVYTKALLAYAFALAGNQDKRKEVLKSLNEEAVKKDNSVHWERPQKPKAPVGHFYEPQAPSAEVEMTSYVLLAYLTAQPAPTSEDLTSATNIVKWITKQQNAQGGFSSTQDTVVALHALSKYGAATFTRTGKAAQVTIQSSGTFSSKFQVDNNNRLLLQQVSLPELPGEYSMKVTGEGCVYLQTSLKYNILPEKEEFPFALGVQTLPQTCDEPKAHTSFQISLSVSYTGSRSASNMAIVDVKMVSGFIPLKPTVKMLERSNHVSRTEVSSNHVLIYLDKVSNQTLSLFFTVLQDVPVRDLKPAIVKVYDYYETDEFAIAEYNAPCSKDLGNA
UniProt Q13443: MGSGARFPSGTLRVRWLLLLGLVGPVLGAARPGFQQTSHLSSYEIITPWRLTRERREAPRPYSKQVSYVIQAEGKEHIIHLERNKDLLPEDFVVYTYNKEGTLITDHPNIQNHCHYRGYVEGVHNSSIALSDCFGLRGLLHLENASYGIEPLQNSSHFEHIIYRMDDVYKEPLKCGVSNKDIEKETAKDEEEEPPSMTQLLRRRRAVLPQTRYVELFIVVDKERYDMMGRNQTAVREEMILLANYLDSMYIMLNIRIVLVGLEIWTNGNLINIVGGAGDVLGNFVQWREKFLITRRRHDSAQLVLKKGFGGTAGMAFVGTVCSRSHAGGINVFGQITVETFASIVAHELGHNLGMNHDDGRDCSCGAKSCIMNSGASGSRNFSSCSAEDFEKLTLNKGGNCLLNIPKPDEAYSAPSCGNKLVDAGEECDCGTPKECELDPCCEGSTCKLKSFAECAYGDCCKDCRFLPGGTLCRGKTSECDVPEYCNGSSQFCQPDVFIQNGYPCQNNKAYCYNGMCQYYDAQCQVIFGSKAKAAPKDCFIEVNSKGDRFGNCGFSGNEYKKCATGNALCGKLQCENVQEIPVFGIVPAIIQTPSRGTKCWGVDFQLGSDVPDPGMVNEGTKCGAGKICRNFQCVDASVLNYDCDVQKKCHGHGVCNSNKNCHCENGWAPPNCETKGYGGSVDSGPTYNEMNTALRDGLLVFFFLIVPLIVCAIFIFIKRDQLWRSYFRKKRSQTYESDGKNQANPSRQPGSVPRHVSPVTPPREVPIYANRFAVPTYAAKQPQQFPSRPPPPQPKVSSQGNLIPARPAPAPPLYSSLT
UniProt Q9UG63: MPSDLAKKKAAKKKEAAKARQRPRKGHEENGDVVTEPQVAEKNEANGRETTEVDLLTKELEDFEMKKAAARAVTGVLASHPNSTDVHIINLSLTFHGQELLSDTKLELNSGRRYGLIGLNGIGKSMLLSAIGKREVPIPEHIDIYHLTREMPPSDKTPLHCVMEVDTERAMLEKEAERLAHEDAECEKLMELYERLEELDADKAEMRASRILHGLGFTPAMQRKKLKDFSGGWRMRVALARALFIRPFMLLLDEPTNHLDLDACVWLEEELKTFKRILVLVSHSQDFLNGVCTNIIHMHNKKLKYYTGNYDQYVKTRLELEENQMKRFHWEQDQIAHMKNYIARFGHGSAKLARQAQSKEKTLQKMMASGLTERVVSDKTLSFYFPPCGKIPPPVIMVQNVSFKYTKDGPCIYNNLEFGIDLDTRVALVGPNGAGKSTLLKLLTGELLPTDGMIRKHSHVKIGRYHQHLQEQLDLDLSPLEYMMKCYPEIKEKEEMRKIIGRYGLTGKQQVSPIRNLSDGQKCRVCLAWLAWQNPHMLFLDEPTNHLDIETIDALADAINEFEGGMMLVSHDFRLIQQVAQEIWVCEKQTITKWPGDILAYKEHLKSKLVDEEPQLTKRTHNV
UniProt O60488: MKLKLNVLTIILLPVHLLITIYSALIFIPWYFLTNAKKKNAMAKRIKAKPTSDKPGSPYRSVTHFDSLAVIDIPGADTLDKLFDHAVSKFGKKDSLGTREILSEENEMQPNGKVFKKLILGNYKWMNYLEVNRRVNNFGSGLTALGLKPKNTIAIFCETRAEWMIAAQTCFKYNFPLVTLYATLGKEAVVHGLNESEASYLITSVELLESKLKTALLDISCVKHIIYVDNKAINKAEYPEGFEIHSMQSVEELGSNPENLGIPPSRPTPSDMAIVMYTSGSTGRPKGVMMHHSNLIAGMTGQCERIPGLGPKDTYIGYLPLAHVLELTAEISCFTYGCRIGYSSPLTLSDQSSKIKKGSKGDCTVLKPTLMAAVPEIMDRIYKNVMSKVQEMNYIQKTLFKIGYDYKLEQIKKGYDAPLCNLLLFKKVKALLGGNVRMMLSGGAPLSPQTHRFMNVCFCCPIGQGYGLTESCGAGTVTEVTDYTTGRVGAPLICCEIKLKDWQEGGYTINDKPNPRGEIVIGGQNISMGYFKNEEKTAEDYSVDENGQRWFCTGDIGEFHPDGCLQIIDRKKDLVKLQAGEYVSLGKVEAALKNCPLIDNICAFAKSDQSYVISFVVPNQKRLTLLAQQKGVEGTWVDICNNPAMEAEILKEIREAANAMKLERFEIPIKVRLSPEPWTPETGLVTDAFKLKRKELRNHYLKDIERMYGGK
UniProt P42025, whole entry, looked up: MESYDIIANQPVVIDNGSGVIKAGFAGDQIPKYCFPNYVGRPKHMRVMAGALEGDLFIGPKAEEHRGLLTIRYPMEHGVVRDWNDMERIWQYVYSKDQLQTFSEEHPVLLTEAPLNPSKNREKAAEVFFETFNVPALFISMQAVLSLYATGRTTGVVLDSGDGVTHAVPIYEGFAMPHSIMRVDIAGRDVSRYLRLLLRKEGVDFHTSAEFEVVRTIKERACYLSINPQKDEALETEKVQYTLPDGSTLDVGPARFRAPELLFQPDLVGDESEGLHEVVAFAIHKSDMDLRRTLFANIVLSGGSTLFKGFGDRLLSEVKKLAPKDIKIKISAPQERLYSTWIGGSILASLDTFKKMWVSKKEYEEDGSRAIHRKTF
UniProt Q9H3P7: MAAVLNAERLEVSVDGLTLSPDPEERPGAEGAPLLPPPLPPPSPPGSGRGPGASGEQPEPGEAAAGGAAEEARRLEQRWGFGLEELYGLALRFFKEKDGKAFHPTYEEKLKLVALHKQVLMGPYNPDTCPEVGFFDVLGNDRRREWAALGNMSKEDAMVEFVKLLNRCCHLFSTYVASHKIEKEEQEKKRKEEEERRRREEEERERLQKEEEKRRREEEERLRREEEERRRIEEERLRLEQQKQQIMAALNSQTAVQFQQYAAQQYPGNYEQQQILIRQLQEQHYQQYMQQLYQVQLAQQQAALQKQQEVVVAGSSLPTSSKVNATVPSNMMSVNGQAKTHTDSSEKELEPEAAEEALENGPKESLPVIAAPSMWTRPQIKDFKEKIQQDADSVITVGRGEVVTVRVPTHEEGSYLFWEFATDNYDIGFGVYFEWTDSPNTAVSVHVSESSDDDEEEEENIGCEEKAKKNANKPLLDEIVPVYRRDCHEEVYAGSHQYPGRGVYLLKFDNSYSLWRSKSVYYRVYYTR
UniProt Q9Y312: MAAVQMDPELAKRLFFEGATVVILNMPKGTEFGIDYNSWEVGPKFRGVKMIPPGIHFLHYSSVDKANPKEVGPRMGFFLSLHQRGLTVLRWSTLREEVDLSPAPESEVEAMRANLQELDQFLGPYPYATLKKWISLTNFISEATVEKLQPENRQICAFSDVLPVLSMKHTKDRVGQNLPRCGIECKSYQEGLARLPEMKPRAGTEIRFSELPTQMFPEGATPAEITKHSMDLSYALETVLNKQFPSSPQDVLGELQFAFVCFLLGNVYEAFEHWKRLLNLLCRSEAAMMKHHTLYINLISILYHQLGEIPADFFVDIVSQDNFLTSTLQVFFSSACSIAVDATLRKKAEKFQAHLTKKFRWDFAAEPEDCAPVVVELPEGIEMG
UniProt Q13685: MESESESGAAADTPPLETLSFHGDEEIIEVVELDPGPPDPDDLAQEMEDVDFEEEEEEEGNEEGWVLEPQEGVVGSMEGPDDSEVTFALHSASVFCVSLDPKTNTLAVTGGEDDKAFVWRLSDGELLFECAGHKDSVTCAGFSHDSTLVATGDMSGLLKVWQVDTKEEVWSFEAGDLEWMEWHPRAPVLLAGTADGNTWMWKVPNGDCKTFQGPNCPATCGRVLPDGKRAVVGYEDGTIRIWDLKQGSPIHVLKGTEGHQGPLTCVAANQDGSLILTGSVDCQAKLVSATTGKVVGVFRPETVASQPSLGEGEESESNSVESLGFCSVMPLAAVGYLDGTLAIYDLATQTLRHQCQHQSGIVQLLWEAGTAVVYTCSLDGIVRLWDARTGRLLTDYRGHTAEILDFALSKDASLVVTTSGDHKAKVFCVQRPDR

How the values were obtained:
Experiment in all cases: log2 fold change, soluble protein after heating vs DMSO (PISA); higher = thermal stabilisation; K562 cells, 10 uM, 30 min; active = over 0.2 and 3.5 SD of the protein, either way, in both replicates (recomputed)
IRAK-1-4 Inhibitor I = compound: C1COCCN1CCN2C3=CC=CC=C3N=C2NC(=O)C4=CC(=CC=C4)[N+](=O)[O-] [IRAK-1-4 Inhibitor I]
Method in brief: (§1)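 Values are thermal stability changes relative to control samples and are taken from duplicates. They are stated as log2 fold changes. Before quantification by TMTpro 16plex LC-MS/MS with equalised channel sums, K562 cells at 2×10^6 cells/mL were treated with 10 μM compound for 30 min, heated in aliquots for 3 min across 48°C-58°C, pooled, extracted in PBS with 0.5% NP-40 at 4°C, and centrifuged at 21,000xg for 90 min to give the soluble supernatant.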

ibrutinib = compound: C=CC(=O)N1CCC[C@@H](n2nc(-c3ccc(Oc4ccccc4)cc3)c3c(N)ncnc32)C1 [ibrutinib]
Method in brief: as §1

[1] = compound: CC(=O)c1cnc2ccc(-c3cc(Cl)c(O)c(Cl)c3)nc2c1N[C@H]1CC[C@H](CN(C)C)CC1
Method in brief: as §1

ralimetinib = compound: CC(C)(C)Cn1c(N)nc2ccc(-c3[nH]c(C(C)(C)C)nc3-c3ccc(F)cc3)nc21 [ralimetinib]
Method in brief: as §1

[2] = compound: CC(C)(O)CC(=O)NCCn1ccc2ncnc(Nc3ccc(Oc4cccc(C(F)(F)F)c4)c(Cl)c3)c21
Method in brief: as §1

[3] = compound: CC(C)C1=C2N=C(C=C(N2N=C1)NCC3=CC=CC=C3)NCCCCCCN
Method in brief: as §1

[4] = compound: CC(C)C[C@@H](C=O)NC(=O)[C@H](CC(C)C)NC(=O)[C@H](CC(C)C)NC(=O)OCc1ccccc1
Method in brief: as §1

pinometostat = compound: CC(C)N(C[C@H]1O[C@@H](n2cnc3c(N)ncnc32)[C@H](O)[C@@H]1O)[C@H]1C[C@@H](CCc2nc3cc(C(C)(C)C)ccc3[nH]2)C1 [pinometostat]
Method in brief: as §1

[5] = compound: CC1=C(C(CC(=O)N1)C2=CC=C(C=C2)C(F)(F)F)C(=O)NC3=C(C=C4C(=C3)C=NN4)F
Method in brief: as §1

[6] = compound: CC1=C(C2=C(C=C1)C(=O)C3=CC=CC=C3N2CCCN)C
Method in brief: as §1

[7] = compound: CC1=C(C=C(C=C1)NC(=O)C2=CC(=CC=C2)C(C)(C)C#N)NC3=CC4=C(C=C3)N=CN(C4=O)C
Method in brief: as §1

[8] = compound: CC1=C(C=C(C=C1)NC(=O)C2=CC(=CC=C2)N(C)C)NC(=O)C3=CC=C(C=C3)O
Method in brief: as §1

[9] = compound: CC1=CC=C(C=C1)SC2=C3C=C(SC3=CN=C2)C(=O)N
Method in brief: as §1

[10] = compound: CC1=NC(=CC=C1)C2=C(N=C(N2)C(C)(C)C)C3=CC4=NC=CN=C4C=C3
Method in brief: as §1

Nexturastat A = compound: CCCCN(Cc1ccc(C(=O)NO)cc1)C(=O)Nc1ccccc1 [Nexturastat A]
Method in brief: as §1

vemurafenib = compound: CCCS(=O)(=O)Nc1ccc(F)c(C(=O)c2c[nH]c3ncc(-c4ccc(Cl)cc4)cc23)c1F [vemurafenib]
Method in brief: as §1

[11] = compound: CCCS(=O)(=O)Nc1ccc(F)c(C(=O)c2c[nH]c3ncc(Cl)cc23)c1F
Method in brief: as §1

[12] = compound: CCCc1cc(C)[nH]c(=O)c1CNC(=O)c1cc(-c2ccnc(N3CCN(C)CC3)c2)cc2c1cnn2C(C)C
Method in brief: as §1

givinostat = compound: CCN(CC)Cc1ccc2cc(COC(=O)Nc3ccc(C(=O)NO)cc3)ccc2c1 [givinostat]
Method in brief: as §1

barasertib = compound: CCN(CCCOc1ccc2c(Nc3cc(CC(=O)Nc4cccc(F)c4)[nH]n3)ncnc2c1)CCOP(=O)(O)O [barasertib]
Method in brief: as §1

Measured: log2 fold change

AAAS (UniProt Q9NRG9)
inactive: IRAK-1-4 Inhibitor I -0.041 | ibrutinib 0.016 | [1] -0.056 | ralimetinib 0.008 | [2] -0.071 | [3] -0.091 | [4] -0.033 | pinometostat -0.004 | [5] -0.009 | [6] 0.035 | [7] 0.027 | [8] 0.019 | [9] 0.012 | [10] 0.038 | Nexturastat A -0.011 | vemurafenib 0.061 | [11] 0.038 | [12] 0.006 | givinostat 0.009 | barasertib 0.019

ACAT2 (UniProt Q9BWD1)
inactive: IRAK-1-4 Inhibitor I 0.031 | ibrutinib 0.02 | [1] 0 | ralimetinib 0.062 | [2] 0.035 | [3] 0.101 | [4] 0.068 | pinometostat -0.061 | [5] 0.036 | [6] 0.04 | [7] -0.002 | [8] 0.039 | [9] 0.04 | [10] 0.027 | Nexturastat A -0.057 | vemurafenib -0.025 | [11] 0.04 | [12] -0.016 | givinostat -0.061 | barasertib 0.015

ACOX1 isoform 2 (UniProt Q15067)
inactive: IRAK-1-4 Inhibitor I 0.026 | ibrutinib 0.008 | [1] 0.011 | ralimetinib 0 | [2] -0.003 | [3] -0.011 | [4] -0.049 | pinometostat -0.033 | [5] -0.03 | [6] 0.056 | [7] 0.031 | [8] 0.016 | [9] 0.021 | [10] 0.041 | Nexturastat A -0.041 | vemurafenib -0.014 | [11] 0.027 | [12] -0.004 | givinostat -0.074 | barasertib -0.015

ACAT1 (UniProt P24752)
inactive: IRAK-1-4 Inhibitor I 0.027 | ibrutinib -0.025 | [1] -0.029 | ralimetinib -0.058 | [2] 0.015 | [3] 0.056 | [4] -0.034 | pinometostat -0.039 | [5] 0.014 | [6] -0.015 | [7] -0.034 | [8] 0.003 | [9] -0.05 | [10] 0.003 | Nexturastat A -0.043 | vemurafenib -0.01 | [11] -0.021 | [12] -0.01 | givinostat 0.007 | barasertib 0.03

A2M (UniProt P01023)
inactive: IRAK-1-4 Inhibitor I 0.044 | ibrutinib 0.215 | [1] 0.125 | ralimetinib -0.057 | [2] 0.202 | [3] 0.155 | [4] 0.059 | pinometostat -0.078 | [5] 0.113 | [6] -0.229 | [7] 0.016 | [8] 0.561 | [9] 0.137 | [10] 0.095 | Nexturastat A -0.095 | vemurafenib 0.09 | [11] -0.083 | [12] -0.251 | givinostat 0.007 | barasertib -0.121

ADAM9 (UniProt Q13443)
inactive: IRAK-1-4 Inhibitor I 0.03 | ibrutinib 0.031 | [1] -0.062 | ralimetinib -0.055 | [2] -0.005 | [3] 0.013 | [4] -0.001 | pinometostat -0.034 | [5] -0.017 | [6] 0.049 | [7] -0.064 | [8] 0.002 | [9] 0.026 | [10] -0.036 | Nexturastat A 0.005 | vemurafenib -0.007 | [11] -0.146 | [12] -0.024 | givinostat -0.023 | barasertib 0.021

ABCC4 (UniProt O15439)
inactive: IRAK-1-4 Inhibitor I 0.002 | ibrutinib 0.022 | [1] -0.007 | ralimetinib -0.021 | [2] -0.005 | [3] 0.058 | [4] -0.001 | pinometostat -0.047 | [5] 0.012 | [6] 0.066 | [7] 0.011 | [8] -0.016 | [9] -0.01 | [10] 0.016 | Nexturastat A -0.025 | vemurafenib -0.002 | [11] -0.002 | [12] -0.015 | givinostat -0.017 | barasertib 0.005

ABCF2 isoform 2 (UniProt Q9UG63)
inactive: IRAK-1-4 Inhibitor I -0.006 | ibrutinib -0.003 | [1] 0.02 | ralimetinib -0.017 | [2] -0.065 | [3] -0.038 | [4] 0.016 | pinometostat 0.014 | [5] -0.043 | [6] 0.143 | [7] 0.03 | [8] 0.015 | [9] -0.048 | [10] 0.04 | Nexturastat A -0.005 | vemurafenib 0 | [11] 0.003 | [12] -0.021 | givinostat -0.013 | barasertib -0.002

ACSL4 (UniProt O60488)
active: [3] -0.443 | [9] 0.418
inactive: IRAK-1-4 Inhibitor I -0.067 | ibrutinib 0.001 | [1] 0 | ralimetinib 0.049 | [2] -0.237 | [4] 0.038 | pinometostat 0.098 | [6] 0 | [7] 0.018 | [8] -0.051 | [10] -0.002 | Nexturastat A 0.233 | vemurafenib 0.021 | [11] 0.104 | [12] 0.053 | givinostat 0.047 | barasertib 0.034

ACTR1B (UniProt P42025)
inactive: IRAK-1-4 Inhibitor I 0.066 | ibrutinib 0.003 | [1] -0.041 | ralimetinib 0.07 | [2] -0.065 | [3] 0.042 | [4] -0.071 | pinometostat 0.003 | [6] -0.013 | [7] -0.056 | [8] -0.124 | [9] 0.001 | [10] -0.003 | Nexturastat A -0.134 | vemurafenib -0.029 | [11] -0.022 | [12] -0.009 | givinostat 0.006 | barasertib 0.031

ACBD3 (UniProt Q9H3P7)
inactive: IRAK-1-4 Inhibitor I 0.03 | ibrutinib 0.005 | [1] -0.017 | ralimetinib 0.003 | [2] 0.028 | [3] 0.032 | [4] -0.003 | pinometostat -0.02 | [5] -0.068 | [6] 0.062 | [7] -0.022 | [8] -0.072 | [9] 0.06 | [10] -0.016 | Nexturastat A -0.022 | vemurafenib 0.023 | [11] 0.037 | [12] 0.042 | givinostat 0.035 | barasertib 0.029

5 consecutive records already listed, for reference:
ACAT1 (UniProt P24752)
inactive: IRAK-1-4 Inhibitor I 0.027 | ibrutinib -0.025 | [1] -0.029 | ralimetinib -0.058 | [2] 0.015 | [3] 0.056 | [4] -0.034 | pinometostat -0.039 | [5] 0.014 | [6] -0.015 | [7] -0.034 | [8] 0.003 | [9] -0.05 | [10] 0.003 | Nexturastat A -0.043 | vemurafenib -0.01 | [11] -0.021 | [12] -0.01 | givinostat 0.007 | barasertib 0.03

A2M (UniProt P01023)
inactive: IRAK-1-4 Inhibitor I 0.044 | ibrutinib 0.215 | [1] 0.125 | ralimetinib -0.057 | [2] 0.202 | [3] 0.155 | [4] 0.059 | pinometostat -0.078 | [5] 0.113 | [6] -0.229 | [7] 0.016 | [8] 0.561 | [9] 0.137 | [10] 0.095 | Nexturastat A -0.095 | vemurafenib 0.09 | [11] -0.083 | [12] -0.251 | givinostat 0.007 | barasertib -0.121

ADAM9 (UniProt Q13443)
inactive: IRAK-1-4 Inhibitor I 0.03 | ibrutinib 0.031 | [1] -0.062 | ralimetinib -0.055 | [2] -0.005 | [3] 0.013 | [4] -0.001 | pinometostat -0.034 | [5] -0.017 | [6] 0.049 | [7] -0.064 | [8] 0.002 | [9] 0.026 | [10] -0.036 | Nexturastat A 0.005 | vemurafenib -0.007 | [11] -0.146 | [12] -0.024 | givinostat -0.023 | barasertib 0.021

ABCC4 (UniProt O15439)
inactive: IRAK-1-4 Inhibitor I 0.002 | ibrutinib 0.022 | [1] -0.007 | ralimetinib -0.021 | [2] -0.005 | [3] 0.058 | [4] -0.001 | pinometostat -0.047 | [5] 0.012 | [6] 0.066 | [7] 0.011 | [8] -0.016 | [9] -0.01 | [10] 0.016 | Nexturastat A -0.025 | vemurafenib -0.002 | [11] -0.002 | [12] -0.015 | givinostat -0.017 | barasertib 0.005

ABCF2 isoform 2 (UniProt Q9UG63)
inactive: IRAK-1-4 Inhibitor I -0.006 | ibrutinib -0.003 | [1] 0.02 | ralimetinib -0.017 | [2] -0.065 | [3] -0.038 | [4] 0.016 | pinometostat 0.014 | [5] -0.043 | [6] 0.143 | [7] 0.03 | [8] 0.015 | [9] -0.048 | [10] 0.04 | Nexturastat A -0.005 | vemurafenib 0 | [11] 0.003 | [12] -0.021 | givinostat -0.013 | barasertib -0.002

Next results follow:

AAR2 (UniProt Q9Y312)
inactive: IRAK-1-4 Inhibitor I 0.039 | ibrutinib 0.02 | [1] 0.021 | ralimetinib -0.002 | [2] -0.062 | [3] -0.012 | [4] 0.104 | pinometostat 0.024 | [6] -0.035 | [7] -0.01 | [8] -0.026 | [9] -0.032 | [10] -0.035 | Nexturastat A 0.074 | vemurafenib -0.018 | [11] 0.021 | [12] -0.105 | givinostat 0.018 | barasertib -0.023

ACSL1 (UniProt P33121)
active: [3] -0.243
inactive: IRAK-1-4 Inhibitor I -0.004 | ibrutinib 0.017 | [1] -0.037 | ralimetinib -0.018 | [2] 0.01 | [4] -0.057 | pinometostat 0.008 | [6] 0.03 | [7] 0.01 | [8] 0.01 | [9] 0.031 | [10] 0.056 | Nexturastat A -0.115 | vemurafenib -0.021 | [11] 0.041 | [12] -0.018 | givinostat -0.034 | barasertib -0.002

ACTR3 (UniProt P61158)
inactive: IRAK-1-4 Inhibitor I 0.038 | ibrutinib 0.008 | [1] 0.014 | ralimetinib -0.014 | [2] -0.004 | [3] 0.101 | [4] 0.011 | pinometostat -0.035 | [5] 0.017 | [6] -0.027 | [7] -0.026 | [8] -0.014 | [9] 0.017 | [10] 0.006 | Nexturastat A -0.056 | vemurafenib 0.025 | [11] 0.01 | [12] 0.021 | givinostat -0.055 | barasertib 0.014

AAMP (UniProt Q13685)
inactive: IRAK-1-4 Inhibitor I 0.007 | ibrutinib 0.023 | [1] 0.064 | ralimetinib 0.031 | [2] 0.04 | [3] -0.051 | [4] -0.02 | pinometostat 0.007 | [7] 0 | [8] -0.006 | [9] -0.028 | [10] -0.04 | Nexturastat A 0.012 | vemurafenib -0.018 | [11] 0.018 | [12] -0.041 | givinostat 0.033 | barasertib -0.006
active: [6] 0.225

ABCC5 (UniProt O15440)
inactive: IRAK-1-4 Inhibitor I -0.035 | ibrutinib -0.082 | [1] 0 | ralimetinib 0.001 | [2] -0.121 | [3] 0.119 | [4] 0.046 | pinometostat 0.086 | [6] 0.116 | [7] 0.107 | [8] -0.033 | [9] 0.035 | [10] -0.073 | Nexturastat A 0.007 | vemurafenib -0.183 | [11] -0.031 | [12] 0.1 | givinostat 0.028 | barasertib 0.026

ABHD17B (UniProt Q5VST6)
inactive: IRAK-1-4 Inhibitor I 0.082 | ibrutinib 0.036 | [1] -0.032 | ralimetinib -0.002 | [2] -0.004 | [3] 0.155 | [4] 0.107 | pinometostat -0.007 | [5] -0.086 | [6] 0.025 | [8] 0.055 | [9] -0.009 | [10] -0.041 | Nexturastat A 0.027 | vemurafenib -0.052 | [11] 0.031 | [12] 0.014 | givinostat -0.091 | barasertib 0.043
